{
  "sequences": {"note": "By UniProt entry, the sequences of proteins in these tests, tags left out.", "UniProt Q9VQ93": "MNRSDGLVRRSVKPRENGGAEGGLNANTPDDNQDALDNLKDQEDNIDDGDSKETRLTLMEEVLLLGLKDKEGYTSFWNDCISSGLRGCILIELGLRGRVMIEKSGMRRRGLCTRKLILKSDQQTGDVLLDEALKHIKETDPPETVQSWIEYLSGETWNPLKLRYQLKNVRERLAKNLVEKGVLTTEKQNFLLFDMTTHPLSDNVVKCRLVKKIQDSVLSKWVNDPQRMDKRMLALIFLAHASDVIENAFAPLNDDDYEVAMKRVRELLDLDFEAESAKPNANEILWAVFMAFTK"},
  "source": "paper PMC8468827",
  "binders": {"B1": {"name": "βCOP (protein, UniProt P45437 1-964)", "chain": "MTSQVPCYTIINSPDLEVTNEMQLKRDLEKGDTNVKIETLKRVIKLLLNGERYPGLIMTIIRFVLPVQNHTIKKLLLIFWEIVPKTSADGKLLQEMILVCDAYRKDLQHPNEFLRGSTLRFLCKLKEPELLEPLMPAIRACLDHRHSYVRRNAVLAIFTIYKNFDWLVPDGPELIASFLDTQQDMSCKRNAFLMLLHADQERALNYLASCIDQVHTFGDILQLVIVELIYKVCHANPAERSRFIRCIYNLLNSSSNAVRYESAGTLITLSLAPTAIKAAASCYIELVVKESDNNVKLIVLDRLVAMKEHEGMEKVMQDLVMDVLRVLAAPDIEVRRKTLALALDLVYSRNIGEMVLVLKKEVAKTHNVEHEDTGKYRQLLVRTLHTCSIKFPDVAANVIPVLVEFLSDTNELAAADVLIFIREAIQKFPALRALIIEHLIEAFPQIKSSKIHRAAVWILGEYVEGSQILEVIAVIQQTLGEVPMVEAEQRRLAGDQTEEQKQQQGSAGGNAAGSAAEGSGSGNASNKVTSDGTYATQSAYSLAPVAKAEKRPPLRQYLMDGDFFIGAALSATLTKLALRYAELETEARAQNRLTTQVMLIMSSILHLGKSGFPSKPITNDDTDRIFVCLRTLSERTPEAISVFTLYCREALGKMLDAQHDEDQRMLKEKQKATAKVQPDDPVLFAQLSNGRDNQLGENVFESSLNQALAGSKNAQLSDVASPNSKLNKVTQLTGFSDPVYAEAYVNVNQYDIVLDVLIVNQTNDTLQNCTLELATLGDLKLVERPHPVVLAPHDFCNIKANVKVSSTENGIIFGNIVYETALNTNVVVLNTIHIDIMDYIIPASCTDTEFRQMWQDFEWENKVTVNTSFTDLHEYLKHLLKSTNMKCLTPEKALSGQCGFMAANMYAKSIFGENALANLSIEKPVDDPDSKVTGHIRIRAKSQGMALSLGDKISSSQKQSVQAA"}, "B2": {"name": "Rab11 (protein, UniProt O18335 1-214)", "chain": "MGAREDEYDYLFKVVLIGDSGVGKSNLLSRFTRNEFNLESKSTIGVEFATRSIEVDGKTIKAQIWDTAGQERYRAITSAYYRGAVGALLVYDIAKHLTYENVERWLRELRDHADQNIVIMLVGNKSDLRHLRSVPTDEAKLFAERNGLSFIETSALDSTNVETAFQNILTEIYRIVSQKQIRDPPEGDVIRPSNVEPIDVKPTVTADVRKQCCQ"}, "B3": {"name": "Srp54k (protein, UniProt Q9V3D9 1-508)", "chain": "MVLADLGRKITTALHSLSKATVINEEALNSMLKEICAALLEADVNIRLVKQLRENVRAVIDFDEMAGGLNKRRMIQSAVFKELVKLVDPGVKPYQPIKGKANVVMFVGLQGSGKTTTCTKLAYHYQKRNWKSCLVCADTFRAGAYDQVKQNATKARIPFYGSYTEIDPVVIAQDGVDMFKREGFEMIIVDTSGRHKQEESLFEEMLAVSNAVSPDNIIFVMDATIGQACEAQAKAFKDKVDIGSVIITKLDGHAKGGGALSAVAATQSPIIFIGTGEHIDDLEPFKTKPFVSKLLGMGDIEGLIDKVNELKLDGNDELLEKIKHGHFTIRDMYEQFQNIMKMGPFSQFMNMIPGFSQDFMTKGGEQESMARVKRMMTMMDSMSDNELDNRDGAKLFSKQPNRCVRVAQGAGVMEREVKELIAHYTKFSAVVKKMGGVKGLFKQGDMTKNVNPTQMAKLNQQIAKMIDPRMLQQMGGVGGIQNMMRQLQQGAAGGLGGLGNLMSGFGGK"}, "B4": {"name": "Shibire (protein, UniProt P27619 1-877)", "chain": "MDSLITIVNKLQDAFTSLGVHMQLDLPQIAVVGGQSAGKSSVLENFVGKDFLPRGSGIVTRRPLILQLINGVTEYGEFLHIKGKKFSSFDEIRKEIEDETDRVTGSNKGISNIPINLRVYSPHVLNLTLIDLPGLTKVAIGDQPVDIEQQIKQMIFQFIRKETCLILAVTPANTDLANSDALKLAKEVDPQGVRTIGVITKLDLMDEGTDARDILENKLLPLRRGYIGVVNRSQKDIEGRKDIHQALAAERKFFLSHPSYRHMADRLGTPYLQRVLNQQLTNHIRDTLPGLRDKLQKQMLTLEKEVEEFKHFQPGDASIKTKAMLQMIQQLQSDFERTIEGSGSALVNTNELSGGAKINRIFHERLRFEIVKMACDEKELRREISFAIRNIHGIRVGLFTPDMAFEAIVKRQIALLKEPVIKCVDLVVQELSVVVRMCTAKMSRYPRLREETERIITTHVRQREHSCKEQILLLIDFELAYMNTNHEDFIGFANAQNKSENANKTGTRQLGNQVIRKGHMVIQNLGIMKGGSRPYWFVLTSESISWYKDEDEKEKKFMLPLDGLKLRDIEQGFMSMSRRVTFALFSPDGRNVYKDYKQLELSCETVEDVESWKASFLRAGVYPEKQETQENGDESASEESSSDPQLERQVETIRNLVDSYMKIVTKTTRDMVPKAIMMLIINNAKDFINGELLAHLYASGDQAQMMEESAESATRREEMLRMYRACKDALQIIGDVSMATVSSPLPPPVKNDWLPSGLDNPRLSPPSPGGVRGKPGPPAQSSLGGRNPPLPPSTGRPAPAIPNRPGGGAPPLPGGRPGGSLPPPMLPSRVSGAVGGAIVQQSGANRYVPESMRGQVNQAVGQAAINELSNAFSSRFK"}, "B5": {"name": "SH3PX1 (protein, UniProt Q9NCC3 1-565)", "chain": "MTSYVRAMYDFTGEPGSSELSIATGDVLSVTRSDVGEGWWEGKNARGQIGLFPAAYVEVMSAAEAQKLSASGATSVPQVPDPFASPPLPRYDQTADDDGSNWDDEDDWSDDNDTYSEIGPGGQKSAGQSARAGGLSHSTSDYDNKHLPIAPNDDTQSLASVAGGTGAAGTVKKGMFAKSSDSYILGLSSTKEKIPECEMAYITQVEDSIYQWTQNHSPYSVVVASPKKESKFKGMKTFIAYQLTPSFNNISVSRRYKHFDWLHERLVDKFCLIPVPPLPDKQISGRYEEQFVEHRRVQLQEFVDWVCRHPVISKCEVWYHFLTCRDEKIWKSGKRKAERDPYMGVNYCLAISPPDKNLLHSKVDAQVELGTQFIHSMDVAVRNLNNISNDMAKRSMSQSKKEFQRIGDGLSDLAKALAIDERRAPTRNAVPLSESVGRIGGIFIGIGQAFGDQPKHDWIPLSDRLHIYRGVLNCFPDIFSTHKGAIQKRKDCEKLAGEGRMNNPQLHDVNRRTDVVSYTVLAELTHFKSERDTHLKHTLKNFIAEQIKFYQGVVARLQEASRQIE"}, "B6": {"name": "Alg11 (protein, UniProt Q9VP06 1-475)", "chain": "MFLFLFLLWLLLSLVLVAVLSFLFLRQWLLGRKNKLHTSSENGINVGIFHPYCNAGGGGERVLWCAVRALQEKYQNARMVIYTGDIDASPNSILQKAKNVFNIAVDSDNVKFVFLKQRHWIEAKNYPHFTLLGQSIGSMVVGLEALCRFPPDIYIDTMGYAFTYPLFRYLAQSKVGCYVHYPVISTDMLKRVQQRQMSHNNKKYVARNPFLTWTKLAYYRLFSRMYKWVGCCAETIMVNSSWTENHILQLWDVPFKTHRVYPPCEVSHLKSLQHTEKGDEFIILSVGQFRPEKDHPLQLQAIYELRTLLAQDEALWNQIKLVIVGSCRNEDDYERLKNMQDLTKHLSLENNVQFSVNVPYEDLLKLYQTAHIGIHTMWNEHFGIGIVESMAAGLIMVAHKSGGPLLDIVETSAGSQNGFLATDAVEYAENILNIIVNNSEMNGIRNAARASVERFSEQEFEKNFLRAVSTLFTNN"}},
  "molecular_target": "dGOLPH3-mRFP (Drosophila) (UniProt Q9VQ93)",
  "assay": "affinity purification with mass spectrometry; RFP-trap beads on lysate of 3000 adult testes expressing dGOLPH3-RFP (RFP alone as control); lysis buffer 25 mM Tris-HCl pH 7.4, 150 mM NaCl, 1 mM EDTA, 1% NP-40; washes at 4 °C; nanoLC-MS/MS",
  "note": "Results are given in words; binding and its absence hold for the method and conditions named. Binding seen in cells or lysates may run through a third protein. Here binding means that the protein was enriched with, or labelled near, the bait; the list need not be complete.",
  "data": [
    {"binder": "B1", "values": [
      {"measurement": "binding", "result": "binds"}
    ]},
    {"binder": "B2", "values": [
      {"measurement": "binding", "result": "binds"}
    ]},
    {"binder": "B3", "values": [
      {"measurement": "binding", "result": "binds"}
    ]},
    {"binder": "B4", "values": [
      {"measurement": "binding", "result": "binds"}
    ]},
    {"binder": "B5", "values": [
      {"measurement": "binding", "result": "binds"}
    ]},
    {"binder": "B6", "values": [
      {"measurement": "binding", "result": "binds"}
    ]}
  ]
}
